We go through one molecule from publication PMC10163088.

The target in test [1] is GST-Yox1 length variant aa 235-280 (S. cerevisiae). The test can be described thus: pull-down; GST fusions of repressors (full-length or length variants) immobilised on GSH sepharose, incubated with bacterial total protein extracts containing HA-tagged Sin3, Cyc8 or Tup1 (or Tup1 length variants); elution with free GSH, anti-HA blot (Figs. 1, 3, 4, 5); only the target purified.

Test [2] concerns the target GST-Dal80 N-terminal part comprising the zinc finger domain (S. cerevisiae). The description is as above.

These are yes or no findings as the source states them, for the method shown. In cells and extracts the contact can be indirect. For some assays here: A result given as binding can be weak or reduced; the word gives no strength.

B1: HA3-Cyc8 (aa 1-398 with 10 TPR motifs; pFK77) (domain or fragment, UniProt P14922 1-398)
chain: MNPGGEQTIMEQPAQQQQQQQQQQQQQQQQAAVPQQPLDPLTQSTAETWLSIASLAETLGDGDRAAMAYDATLQFNPSSAKALTSLAHLYRSRDMFQRAAELYERALLVNPELSDVWATLGHCYLMLDDLQRAYNAYQQALYHLSNPNVPKLWHGIGILYDRYGSLDYAEEAFAKVLELDPHFEKANEIYFRLGIIYKHQGKWSQALECFRYILPQPPAPLQEWDIWFQLGSVLESMGEWQGAKEAYEHVLAQNQHHAKVLQQLGCLYGMSNVQFYDPQKALDYLLKSLEADPSDATTWYHLGRVHMIRTDYTAAYDAFQQAVNRDSRNPIFWCSIGVLYYQISQYRDALDAYTRAIRLNPYISEVWYDLGTLYETCNNQLSDALDAYKQAARLDVNN
B1: the binding result is on record as “binds” in test [1] and “no binding” in test [2].
